Laboratory results published in patent publication US20110218199A1, “PYRIDONEAMIDE DERIVATIVES, THEIR MANUFACTURE AND USE AS PHARMACEUTICAL AGENTS” (priority 2007, published 2011).
Some of these results come from one statement about several compounds together. Some compounds share one range, which may span the group rather than tell each member.

By UniProt entry, the sequences of proteins in these tests, tags left out. Residues count along the entry.
UniProt Q05397, 422-680 limits assumed, species assumed: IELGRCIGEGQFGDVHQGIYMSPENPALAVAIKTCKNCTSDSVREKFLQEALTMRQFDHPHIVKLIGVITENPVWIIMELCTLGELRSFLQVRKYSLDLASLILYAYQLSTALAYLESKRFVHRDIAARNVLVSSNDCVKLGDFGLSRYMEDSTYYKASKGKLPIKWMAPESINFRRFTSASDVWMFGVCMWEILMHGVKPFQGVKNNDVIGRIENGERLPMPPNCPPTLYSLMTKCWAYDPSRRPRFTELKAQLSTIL

target: T1, FAK Kinase Domain (KD) (Homo sapiens, UniProt Q05397); experiment: IC50 determination for inhibitors of FAK (ELISA-type assay); format: biochemical; details: FAK kinase domain from baculo Sf9, biotinylated FAK-397 peptide, 10 μM ATP, 30 min
T1 construct: FAK Kinase Domain (KD) from baculo Sf9 was used; made in house; host or cells: baculovirus / Sf9 insect cells

IC50 FAK inhibition, 1 to 2000 nM:
COc1ccc(NC(=O)c2c(NC3CCCCC3)cc[nH]c2=O)cc1N1CCN(C)CC1 [Example 6m, 4-Cyclohexylamino-2-oxo-1,2-dihydro-pyridine-3-carboxylic acid [4-methoxy-3-(4-methyl-piperazin-1-yl)-phenyl]-amide]
COc1ccc(NC(=O)c2c(NC3CCN(C)CC3)cc[nH]c2=O)cc1N1CCN(C)CC1 [Example 6l, 4-(1-Methyl-piperidin-4-ylamino)-2-oxo-1,2-dihydro-pyridine-3-carboxylic acid [4-methoxy-3-(4-methyl-piperazin-1-yl)-phenyl]-amide]
O=C(Nc1cccc(N2CCOCC2)c1)c1c(NC[C@@H](O)c2cccc(Cl)c2)cc[nH]c1=O [Example 4m, 4-[(S)-2-(3-Chloro-phenyl)-2-hydroxy-ethylamino]-2-oxo-1,2-dihydro-pyridine-3-carboxylic acid (3-morpholin-4-yl-phenyl)-amide]
COc1ccc(NC(=O)c2c(NCCc3cccnc3)cc[nH]c2=O)cc1N1CCN(C)CC1 [Example 6aa, 2-Oxo-4-(2-pyridin-3-yl-ethylamino)-1,2-dihydro-pyridine-3-carboxylic acid [4-methoxy-3-(4-methyl-piperazin-1-yl)-phenyl]-amide]
COc1ccc(NC(=O)c2c(NCC(C)c3ccccc3)cc[nH]c2=O)cc1N1CCN(C)CC1 (stereo not drawn) [Example 6j, 2-Oxo-4-(2-phenyl-propylamino)-1,2-dihydro-pyridine-3-carboxylic acid [4-methoxy-3-(4-methyl-piperazin-1-yl)-phenyl]-amide]
O=C(Nc1ccc(N2CCOCC2)c(F)c1)c1c(NC[C@@H](O)c2cccc(Cl)c2)cc[nH]c1=O [Example 2c, 4-[(S)-2-(3-Chloro-phenyl)-2-hydroxy-ethylamino]-2-oxo-1,2-dihydro-pyridine-3-carboxylic acid (3-fluoro-4-morpholin-4-yl-phenyl)-amide]
COc1ccccc1CCNc1cc[nH]c(=O)c1C(=O)Nc1cccc(N2CCN(C)CC2)c1 [Example 4ab, 4-[2-(2-Methoxy-phenyl)-ethylamino]-2-oxo-1,2-dihydro-pyridine-3-carboxylic acid [3-(4-methyl-piperazin-1-yl)-phenyl]-amide]
CC(CNc1cc[nH]c(=O)c1C(=O)Nc1cccc(N2CCOCC2)c1)c1ccccc1 (stereo not drawn) [Example 6g, 2-Oxo-4-(2-phenyl-propylamino)-1,2-dihydro-pyridine-3-carboxylic acid (3-morpholin-4-yl-phenyl)-amide]
COc1ccc(NC(=O)c2c(NCCN3CCCC3)cc[nH]c2=O)cc1N1CCN(C)CC1 [Example 6n, 2-Oxo-4-(2-pyrrolidin-1-yl-ethylamino)-1,2-dihydro-pyridine-3-carboxylic acid [4-methoxy-3-(4-methyl-piperazin-1-yl)-phenyl]-amide]
